The data set can be described thus: Copper content by ICP-MS. The conditions noted are these: for decrease of copper binding: versus wild type.

Positions count from the first letter of the chain named. Names may count otherwise.

B1: H73A: RL5 laccase mutant, histidine 73 replaced by alanine (protein)
chain: MIELEKLDFAKSVEGVEAFSTTRGQVDGRNAYSGVNLCDYVGDDALRVLDARLTLAMQLGVDLDDLVMPRQTASCRVAVIDERFRALDIDEQEAALEGVDALVTRLQGIVIGVNTADCVPIVLVDSQAGIVAVSHAGWRGTVGRIAKAVVEEMCRQGATVDRIQAAMGPSICQDCFEVGDEVVEAFKKAHFNLNDIVVRNPATGKAHIDLRAANRAVLVAAGVPAANIVESQHCSRCEHTSFFSARRLGINSGRTFTGIYRK
On to B1, for which the “decrease of copper binding” value is reported as “approx. 25%”.

B2: H135A: RL5 laccase mutant, histidine 135 replaced by alanine (protein)
chain: B1 chain with A73H, H135A
Consider B2, for which the “decrease of copper binding” value is listed as “approx. 25%”.

B3: C118Q: RL5 laccase mutant, cysteine 118 replaced by glutamine (protein)
chain: B1 chain with A73H, C118Q
For the molecule B3, the copper content was 3 molecules of copper per monome.

B4: H190A: RL5 laccase mutant, histidine 190 replaced by alanine (protein)
chain: B1 chain with A73H, H190A
Consider B4, for which the “metal content relative to wild type enzyme” value worked out at 75%.

B5: H239A: RL5 laccase mutant, histidine 239 replaced by alanine (protein)
chain: B1 chain with A73H, H239A
For the molecule B5, the “metal content relative to wild type enzyme” value was 75%.

B6: H207A: RL5 laccase mutant, histidine 207 replaced by alanine (protein)
chain: B1 chain with A73H, H207A
Consider B6, for which the “metal content relative to wild type enzyme” value is 75%.

B7: C75Q: RL5 laccase mutant, cysteine 75 replaced by glutamine (protein)
chain: B1 chain with A73H, C75Q
For the molecule B7, the copper content is recorded as 3 molecules of copper per monome.

B8: H233A: RL5 laccase mutant, histidine 233 replaced by alanine (protein)
chain: B1 chain with A73H, H233A
B8: the “decrease of copper binding” value is “approx. 25%”.

For the origin of these results see patent US20090305339A1, “Polypeptides With Laccase Activity” (VIALACTIA BIOSCIENCES (NZ) LIMITED, priority 2006, published 2009).
